Test results: publication PMC12733253, “NFE2 Truncation Mutants Protect Wild-Type NFE2 from ITCH-Dependent Degradation” (International Journal of Molecular Sciences, 2025)
No constants are given. Whether binding was seen depends on the method and setting. Binding seen in cells or lysates may run through a third protein. Some binding calls cover weakened binding; strength is not graded here. Where a sequence is shown, tags or fusion partners need not be part of it.

By UniProt entry, the sequences of proteins in these tests, tags left out. Where a name states a change or a piece, a line headed by the entry shows the natural chain unless it says otherwise. Chains listed by the source or under a name are the forms on record and can include a tag or linker.
itchy E3 ubiquitin protein ligase (ITCH), wild type, MYC-tagged (Q96J02-2, form named): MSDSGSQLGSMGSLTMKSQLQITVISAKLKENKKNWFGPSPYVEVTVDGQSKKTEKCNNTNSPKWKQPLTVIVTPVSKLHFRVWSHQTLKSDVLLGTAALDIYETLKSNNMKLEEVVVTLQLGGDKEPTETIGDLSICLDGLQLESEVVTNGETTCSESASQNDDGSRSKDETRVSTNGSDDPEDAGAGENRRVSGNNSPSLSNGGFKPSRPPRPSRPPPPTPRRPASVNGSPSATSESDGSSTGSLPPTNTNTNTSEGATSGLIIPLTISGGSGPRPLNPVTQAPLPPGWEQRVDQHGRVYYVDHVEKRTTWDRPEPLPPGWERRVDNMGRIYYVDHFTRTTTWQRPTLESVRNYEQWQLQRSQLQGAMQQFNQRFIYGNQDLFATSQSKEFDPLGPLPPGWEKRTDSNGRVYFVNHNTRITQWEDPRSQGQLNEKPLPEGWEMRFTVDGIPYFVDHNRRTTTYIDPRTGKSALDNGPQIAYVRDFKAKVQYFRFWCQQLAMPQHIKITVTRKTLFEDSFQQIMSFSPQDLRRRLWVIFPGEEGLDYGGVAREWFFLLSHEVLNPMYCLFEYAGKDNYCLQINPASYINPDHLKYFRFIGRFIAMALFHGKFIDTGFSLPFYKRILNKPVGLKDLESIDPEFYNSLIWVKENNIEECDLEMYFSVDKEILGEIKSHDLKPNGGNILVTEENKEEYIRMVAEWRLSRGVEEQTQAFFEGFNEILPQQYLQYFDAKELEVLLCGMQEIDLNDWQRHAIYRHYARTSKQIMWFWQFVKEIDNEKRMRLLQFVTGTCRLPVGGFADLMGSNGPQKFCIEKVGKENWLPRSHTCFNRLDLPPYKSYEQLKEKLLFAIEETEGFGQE

T1: wild-type nuclear factor erythroid 2 (NFE2), HA-tagged (human) (UniProt Q16621)
T1 sequence: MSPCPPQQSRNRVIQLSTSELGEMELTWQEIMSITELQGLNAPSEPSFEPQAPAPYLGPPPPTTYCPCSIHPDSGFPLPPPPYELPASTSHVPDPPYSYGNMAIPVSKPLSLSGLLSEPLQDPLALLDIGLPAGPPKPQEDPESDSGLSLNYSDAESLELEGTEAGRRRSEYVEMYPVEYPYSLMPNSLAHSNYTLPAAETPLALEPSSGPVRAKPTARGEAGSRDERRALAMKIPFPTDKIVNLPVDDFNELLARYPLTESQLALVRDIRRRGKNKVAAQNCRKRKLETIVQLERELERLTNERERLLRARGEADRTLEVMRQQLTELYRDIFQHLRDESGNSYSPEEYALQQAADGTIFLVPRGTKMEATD

T2: NFE2-Δ297-300, HA-tagged (human) (UniProt Q16621)
T2 sequence: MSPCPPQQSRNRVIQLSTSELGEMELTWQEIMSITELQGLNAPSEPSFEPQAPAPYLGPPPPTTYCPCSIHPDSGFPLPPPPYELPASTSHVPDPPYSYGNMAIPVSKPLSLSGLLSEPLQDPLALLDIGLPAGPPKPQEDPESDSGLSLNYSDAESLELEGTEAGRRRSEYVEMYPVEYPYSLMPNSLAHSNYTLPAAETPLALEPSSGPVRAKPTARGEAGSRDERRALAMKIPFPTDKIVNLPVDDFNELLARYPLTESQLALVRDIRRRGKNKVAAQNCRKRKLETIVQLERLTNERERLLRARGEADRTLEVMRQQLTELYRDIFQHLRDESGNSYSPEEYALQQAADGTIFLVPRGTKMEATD


Legend:
[1] = target: T1, wild-type nuclear factor erythroid 2 (NFE2), HA-tagged (human); assay: co-IP; HEK-293T co-transfected with MYC-tagged ITCH and HA-tagged NFE2 construct, RIPA lysate 36 h after transfection; IP with anti-HA magnetic beads (Pierce HA-Tag Magnetic IP/Co-IP Kit); blots probed for NFE2 and MYC
[2] = target: T2, NFE2-Δ297-300, HA-tagged (human); assay: as above
[3] = target: itchy E3 ubiquitin protein ligase (ITCH), wild type, MYC-tagged (UniProt Q96J02); assay: proximity ligation; HEK-293T co-transfected (PEI) with MYC-ITCH and NFE2 construct, fixed with 2% formalin, permeabilized with 0.2% Triton X-100; Duolink In Situ Red kit with antibodies marking NFE2 and ITCH; control: MYC-ITCH alone
[4] = target: itchy E3 ubiquitin protein ligase (ITCH), wild type, MYC-tagged (UniProt Q96J02); assay: co-IP; HEK-293T co-transfected with MYC-tagged ITCH and HA-tagged NFE2 construct, RIPA lysate 36 h after transfection; IP with anti-MYC magnetic beads (Pierce Myc-Tag Magnetic IP/Co-IP Kit); blots probed for NFE2 and MYC

binding [1]	binding [2]	binding [3]	binding [4]	Molecule
binds	binds			itchy E3 ubiquitin protein ligase (ITCH), wild type, MYC-tagged (from UniProt Q96J02-2 1-862) (enzyme)
		binds	binds	NFE2-Δ297-300, HA-tagged (protein, UniProt Q16621) MSPCPPQQSRNRVIQLSTSELGEMELTWQEIMSITELQGLNAPSEPSFEPQAPAPYLGPPPPTTYCPCSIHPDSGFPLPPPPYELPASTSHVPDPPYSYGNMAIPVSKPLSLSGLLSEPLQDPLALLDIGLPAGPPKPQEDPESDSGLSLNYSDAESLELEGTEAGRRRSEYVEMYPVEYPYSLMPNSLAHSNYTLPAAETPLALEPSSGPVRAKPTARGEAGSRDERRALAMKIPFPTDKIVNLPVDDFNELLARYPLTESQLALVRDIRRRGKNKVAAQNCRKRKLETIVQLERLTNERERLLRARGEADRTLEVMRQQLTELYRDIFQHLRDESGNSYSPEEYALQQAADGTIFLVPRGTKMEATD
		binds	binds	wild-type nuclear factor erythroid 2 (NFE2), HA-tagged (natural protein, human, UniProt Q16621 1-373, looked up) MSPCPPQQSRNRVIQLSTSELGEMELTWQEIMSITELQGLNAPSEPSFEPQAPAPYLGPPPPTTYCPCSIHPDSGFPLPPPPYELPASTSHVPDPPYSYGNMAIPVSKPLSLSGLLSEPLQDPLALLDIGLPAGPPKPQEDPESDSGLSLNYSDAESLELEGTEAGRRRSEYVEMYPVEYPYSLMPNSLAHSNYTLPAAETPLALEPSSGPVRAKPTARGEAGSRDERRALAMKIPFPTDKIVNLPVDDFNELLARYPLTESQLALVRDIRRRGKNKVAAQNCRKRKLETIVQLERELERLTNERERLLRARGEADRTLEVMRQQLTELYRDIFQHLRDESGNSYSPEEYALQQAADGTIFLVPRGTKMEATD
